Patent publication US11083198B2, “4H-pyrrolopyridine compound or salt thereof, agricultural and horticultural insecticide comprising the compound or the salt, and method for using the insecticide” (Nihon Nohyaku Co., Ltd., priority 2016, dated 2021)
Some of these results come from one statement about several compounds together.

Key:
Assay type in all cases: in vivo
Plutella xylostella = assay: Insecticidal Test on Plutella xylostella; details: 500 ppm, Chinese cabbage seedlings with laid eggs dipped for about 30 seconds, 25° C., 6 days after the dip treatment
Myzus persicae = assay: Test for Control Efficacy on Myzus persicae; details: 500 ppm, foliar application to potted Chinese cabbage plants, 6 days after the foliar application
Laodelphax striatellus = assay: Insecticidal Test on Laodelphax striatellus; details: 500 ppm, rice plant seedlings dipped for 30 seconds, 3rd-instar larvae, 8 days after the inoculation

SMILES | insecticidal efficacy (corrected mortality rate) (Plutella xylostella) | control efficacy (control rate) (Myzus persicae) | insecticidal efficacy (corrected mortality rate) (Laodelphax striatellus)
CCn1cc(C(F)(F)F)cc2nc(-c3ncc(C4CC4)cc3S(=O)(=O)CC)c(F)c1-2 [Compound 1-95] | A (the corrected mortality rate is 100%) | A (the control rate is 100%) | A (the corrected mortality rate is 100%)
CCS(=O)(=O)c1cc(C2CC2)cnc1-c1nc2cc(C(F)(F)F)cn(C)c-2c1F [Compound 1-94] | A (the corrected mortality rate is 100%) | A (the control rate is 100%) | A (the corrected mortality rate is 100%)
CCn1cc(C(F)(F)F)cc2nc(-c3ncc(-c4cccc(C(F)(F)F)c4)cc3S(=O)(=O)CC)c(Cl)c1-2 [Compound 1-14] | A (the corrected mortality rate is 100%) | A (the control rate is 100%) | A (the corrected mortality rate is 100%)
CCS(=O)(=O)c1cc2ccc(Br)cc2nc1-c1nc2cc(C(F)(F)F)cn(CC3CC3)c-2c1Cl [Compound 2-109] | A (the corrected mortality rate is 100%) | A (the control rate is 100%) | A (the corrected mortality rate is 100%)
CCn1cc(C(F)(F)F)cc2nc(-c3ncc(-n4ccc(C(F)(F)F)n4)cc3S(=O)(=O)CC)cc1-2 [Compound 1-36] | A (the corrected mortality rate is 100%) | A (the control rate is 100%) | A (the corrected mortality rate is 100%)
CCS(=O)(=O)c1cc(-c2cccc(C(F)(F)F)c2)cnc1-c1nc2cc(C(F)(F)F)cn(CC(F)(F)F)c-2c1Cl [Compound 1-20] | A (the corrected mortality rate is 100%) | A (the control rate is 100%) | A (the corrected mortality rate is 100%)
